Assay results: patent US6338963B1, “Use of carbon monoxide dependent guanylyl cyclase modifiers to stimulate neuritogenesis” (NeoTherapeutics, Inc., priority 1994, dated 2002)

What was measured:
C57BL/6 mice = test: Ethanol-induced working memory deficit (win-shift); format: in vivo
Method: Six month old male C57BL/6 mice were evaluated in the win-shift model in combination with treatment with ethanol, a non-specific memory suppressant, and AIT-082. Subjects were treated with saline (control) or AIT-082 (30 mg/kg. i.p.) 1 hour prior to testing. Ethanol was administered at a dose of 0.5 gm/kg i.p. ten minutes prior to testing.

Swiss Webster mice = test: Win-shift T-maze memory test, Swiss Webster mice; format: in vivo
Method: Male Swiss Webster mice six months (young adult) and eleven months (old) of age, obtained from the National Institute on Aging, were maintained in individual cages, on a […] light/dark cycle with continuous access to water. Food was limited so that the mice stabilized at 80% of free feeding weight. Mice were weighed and handled daily for one week. The win-shift model was run as described in the literature and consists of a T-maze in which the correct response alternates after each correct trial. The interval between trials is varied and allows for the determination of the longest period between trials that a subject can remember the correct response on the previous trial. This allows the measure of the duration of the memory trace. […] The reward goal box is alternated after each correct trial. Ten trials per mouse are run each day. […] The latency time to leave the start box is recorded as a measure of motivation, the running time (the time from leaving the start box to reaching the goal box) is recorded as a measure of performance, and the number of correct responses as a measure of memory.
The drugs used in this example are 4-((3-(1,6-dihydro-6-oxo-9-purin-9-yl)-1-oxopropyl)amino) benzoic acid (AIT-082), as an exemplary potassium salt, tacrine hydrochloride (tetrahydroaminoacridine, THA, Sigma Chemical Co., St. Louis, Mo.), and physostigmine, hemisulfate salt (PHY, Sigma Chemical Co., St. Louis, Mo.). The drugs were dissolved in saline and prepared fresh daily. All injections were made at a volume of 0.1 ml/10 grams body weight. When testing drug effects, intraperitoneal (i.p.) injections of AIT-082 or THA were made one hour prior to the start of testing. Due to its shorter duration of action, PHY was injected 30 minutes prior to testing. Control subjects receive a similar injection of saline (vehicle).
To determine the duration of the memory trace, subjects were administered drug or saline and 30 minutes (PHY) or 1 hour (AIT-082 or THA) later they were given a single reference run with the milk reward in both goal boxes. After the indicated inter-trial delay, subjects were returned to the start box and given the first test trial with the milk reward only in the goal box opposite to the one entered on the previous correct trial. The subjects were given 10 trials with the reward alternating only after correct responses.
To determine if tolerance to the biological effects of AIT-082 developed, drug or saline was administered daily for 18 days prior to the testing in the standard win-shift paradigm.

[1] = Ethanol + AIT-082 30 mg/kg i.p.

## O=C(CCn1cnc2c(=O)[nH]cnc21)Nc1ccc(C(=O)O)cc1 [AIT-082, N-4-carboxyphenyl-3-(6-oxohydropurin-9-yl)propanamide]
C57BL/6 mice; [1]
  Latency time: 1.77 ± 0.27 s
  Running time: 3.22 ± 0.61 s
Swiss Webster mice; AIT-082 0.5 mg/kg
  Win-shift Memory Test, Latency time: 1.95 s
  Win-shift Memory Test, Running time: 2.20 s
Swiss Webster mice; AIT-082 30.0 mg/kg
  Win-shift Memory Test, Latency time: 2.03 s
  Win-shift Memory Test, Running time: 1.95 s

## CCO [Ethanol, ethanol, reference compound]
C57BL/6 mice; Ethanol 0.5 gm/kg i.p.
  Latency time: 1.18 ± 0.10 s
  Running time: 1.17 ± 0.08 s

## Nc1c2c(nc3ccccc13)CCCC2 [THA, tacrine hydrochloride, reference compound]
Swiss Webster mice; THA 1.25 mg/kg
  Win-shift Memory Test, Latency time: 8.22* seconds
  Win-shift Memory Test, Running time: 3.65* seconds

## physostigmine, hemisulfate salt [reference compound]
Swiss Webster mice; PHY 0.125 mg/kg
  Win-shift Memory Test, Running time: 2.65 s

Structures can show the parent of a compound that is named as a salt. Marks after values point to notes of the source that are not given here.
